# The list shows a part of the results.
# B1: Thrombomodulin Lectin (Mus musculus) (protein)
# chain: LSALAKLQPTGSQCVEHECFALFQGPATFLDASQACQRLQGHLMTVRSSVAADVISLLLSQSSMDLGPWIGLQLPQGCDDPVHLGPLRGFQWVTGDNHTSYSRWARPNDQTAPLCGPLCVTVSTATEAAPGEPAWEEKPCETETQGFLCEFYFTASCRVDPIPVREDTKEEEGAGEPPVSPTPGSPTGPPSARPVLDEPRVPITQNPCPPLKECPPCAAPDLEGGPSVFIFPPKIKDVLMISLSPMVTCVVVDVSEDDPDVQISWFVNNVEVHTAQTQTHREDYNSTLRVVSALPIQHQDWMSGKAFACAVNNRALPSPIEKTISKPRGPVRAPQVYVLPPPAEEMTKKEFSLTCMITGFLPAEIAVDWTSNGRTEQNYKNTATVLDSDGSYFMYSKLRVQKSTWERGSLFACSVVHEGLHNHLTTKTISRSLGK
# How the values were obtained:
# Assay in all cases: glycan array binding signal (z-score within array); higher = stronger binding
# Details in all cases: glycan notation: IUPAC condensed, linker removed
# Neu5Ac(a2-3)GalNAc = target: Neu5Ac(a2-3)GalNAc
# Procedure, shortened: (§1)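 Glycan array binding is given as a within-array Z-score, which can be read as non-binding when negative. The arrays, 3228 of them, came from the Consortium for Functional Glycomics database and were retained only where the protein sequence was available. Z-scores were averaged across arrays of the same protein sequence at different concentrations or buffers and across linkers.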
# [1] = target: Neu5Ac(a2-3)GalNAc(b1-4)GlcNAc
# Procedure, shortened: as §1
# [2] = target: Neu5Ac(a2-3)[GalNAc(b1-4)]Gal(b1-4)Glc
# Procedure, shortened: as §1
# [3] = target: Neu5Ac(a2-3)[GalNAc(b1-4)]Gal(b1-4)GlcNAc
# Procedure, shortened: as §1
# [4] = target: Neu5Ac(a2-3)[GalNAc(b1-4)]Gal(b1-4)GlcNAc(b1-3)GalNAc
# Procedure, shortened: as §1
# [5] = target: Neu5Ac(a2-3)[Neu5Ac(a2-6)]GalNAc
# Procedure, shortened: as §1
# Neu5Ac(a2-6)Gal = target: Neu5Ac(a2-6)Gal
# Procedure, shortened: as §1
# [6] = target: Neu5Ac(a2-6)Gal(b1-3)GlcNAc(b1-3)[Gal(b1-4)GlcNAc(b1-6)]Gal(b1-4)Glc
# Procedure, shortened: as §1
# Neu5Ac(a2-6)Gal(b1-4)Glc = target: Neu5Ac(a2-6)Gal(b1-4)Glc
# Procedure, shortened: as §1
# [7] = target: Neu5Ac(a2-6)Gal(b1-4)GlcNAc
# Procedure, shortened: as §1
# [8] = target: Neu5Ac(a2-6)Gal(b1-4)GlcNAc(b1-2)Man
# Procedure, shortened: as §1
# [9] = target: Neu5Ac(a2-6)Gal(b1-4)GlcNAc(b1-2)Man(a1-3)Man(b1-4)GlcNAc(b1-4)GlcNAc
# Procedure, shortened: as §1
# [10] = target: Neu5Ac(a2-6)Gal(b1-4)GlcNAc(b1-2)Man(a1-3)[Gal(b1-4)GlcNAc(b1-2)Man(a1-6)]Man(b1-4)GlcNAc(b1-4)GlcNAc
# Procedure, shortened: as §1
# [11] = target: Neu5Ac(a2-6)Gal(b1-4)GlcNAc(b1-2)Man(a1-3)[GlcNAc(b1-2)Man(a1-6)]Man(b1-4)GlcNAc(b1-4)GlcNAc
# Procedure, shortened: as §1
# [12] = target: Neu5Ac(a2-6)Gal(b1-4)GlcNAc(b1-2)Man(a1-3)[GlcNAc(b1-4)][Neu5Ac(a2-6)Gal(b1-4)GlcNAc(b1-2)Man(a1-6)]Man(b1-4)GlcNAc(b1-4)GlcNAc
# Procedure, shortened: as §1
# [13] = target: Neu5Ac(a2-6)Gal(b1-4)GlcNAc(b1-2)Man(a1-3)[Man(a1-6)]Man(b1-4)GlcNAc(b1-4)GlcNAc
# Procedure, shortened: as §1
# [14] = target: Neu5Ac(a2-6)Gal(b1-4)GlcNAc(b1-2)Man(a1-3)[Neu5Ac(a2-3)Gal(b1-4)GlcNAc(b1-2)Man(a1-6)]Man(b1-4)GlcNAc(b1-4)GlcNAc
# Procedure, shortened: as §1
# [15] = target: Neu5Ac(a2-6)Gal(b1-4)GlcNAc(b1-2)Man(a1-3)[Neu5Ac(a2-6)Gal(b1-4)GlcNAc(b1-2)Man(a1-6)]Man(b1-4)GlcNAc(b1-4)GlcNAc
# Procedure, shortened: as §1
# [16] = target: Neu5Ac(a2-6)Gal(b1-4)GlcNAc(b1-2)Man(a1-3)[Neu5Ac(a2-6)Gal(b1-4)GlcNAc(b1-2)Man(a1-6)]Man(b1-4)GlcNAc(b1-4)[Fuc(a1-6)]GlcNAc
# Procedure, shortened: as §1
# [17] = target: Neu5Ac(a2-6)Gal(b1-4)GlcNAc(b1-2)Man(a1-6)Man(b1-4)GlcNAc(b1-4)GlcNAc
# Procedure, shortened: as §1
# [18] = target: Neu5Ac(a2-6)Gal(b1-4)GlcNAc(b1-2)Man(a1-6)[Gal(b1-4)GlcNAc(b1-2)Man(a1-3)]Man(b1-4)GlcNAc(b1-4)GlcNAc
# Procedure, shortened: as §1
# [19] = target: Neu5Ac(a2-6)Gal(b1-4)GlcNAc(b1-2)Man(a1-6)[GlcNAc(b1-2)Man(a1-3)]Man(b1-4)GlcNAc(b1-4)GlcNAc
# Procedure, shortened: as §1
# [20] = target: Neu5Ac(a2-6)Gal(b1-4)GlcNAc(b1-2)Man(a1-6)[Man(a1-3)]Man(b1-4)GlcNAc(b1-4)GlcNAc
# Procedure, shortened: as §1
# [21] = target: Neu5Ac(a2-6)Gal(b1-4)GlcNAc(b1-2)[Neu5Ac(a2-6)Gal(b1-4)GlcNAc(b1-4)]Man(a1-3)[GlcNAc(b1-4)][Neu5Ac(a2-6)Gal(b1-4)GlcNAc(b1-2)[Neu5Ac(a2-6)Gal(b1-4)GlcNAc(b1-6)]Man(a1-6)]Man(b1-4)GlcNAc(b1-4)GlcNAc
# Procedure, shortened: as §1
# [22] = target: Neu5Ac(a2-6)Gal(b1-4)GlcNAc(b1-2)[Neu5Ac(a2-6)Gal(b1-4)GlcNAc(b1-4)]Man(a1-3)[GlcNAc(b1-4)][Neu5Ac(a2-6)Gal(b1-4)GlcNAc(b1-4)Man(a1-6)]Man(b1-4)GlcNAc(b1-4)GlcNAc
# Procedure, shortened: as §1
# [23] = target: Neu5Ac(a2-6)Gal(b1-4)GlcNAc(b1-2)[Neu5Ac(a2-6)Gal(b1-4)GlcNAc(b1-6)]Man(a1-6)[Neu5Ac(a2-6)Gal(b1-4)GlcNAc(b1-2)Man(a1-3)][GlcNAc(b1-4)]Man(b1-4)GlcNAc(b1-4)GlcNAc
# Procedure, shortened: as §1
# [24] = target: Neu5Ac(a2-6)Gal(b1-4)GlcNAc(b1-3)Gal(b1-3)GlcNAc
# Procedure, shortened: as §1
# [25] = target: Neu5Ac(a2-6)Gal(b1-4)GlcNAc(b1-3)Gal(b1-4)GlcNAc
# Procedure, shortened: as §1
# [26] = target: Neu5Ac(a2-6)Gal(b1-4)GlcNAc(b1-3)Gal(b1-4)GlcNAc(b1-2)Man(a1-3)[Neu5Ac(a2-6)Gal(b1-4)GlcNAc(b1-3)Gal(b1-4)GlcNAc(b1-2)Man(a1-6)]GalNAc
# Procedure, shortened: as §1
# [27] = target: Neu5Ac(a2-6)Gal(b1-4)GlcNAc(b1-3)Gal(b1-4)GlcNAc(b1-3)Gal(b1-4)GlcNAc
# Procedure, shortened: as §1
# [28] = target: Neu5Ac(a2-6)Gal(b1-4)GlcNAc(b1-3)Gal(b1-4)GlcNAc(b1-3)Gal(b1-4)GlcNAc(b1-2)Man(a1-3)[Neu5Ac(a2-6)Gal(b1-4)GlcNAc(b1-3)Gal(b1-4)GlcNAc(b1-3)Gal(b1-4)GlcNAc(b1-2)Man(a1-6)]GalNAc
# Procedure, shortened: as §1
# [29] = target: Neu5Ac(a2-6)Gal(b1-4)GlcNAc(b1-3)Gal(b1-4)GlcNAc(b1-3)GalNAc
# Procedure, shortened: as §1
# [30] = target: Neu5Ac(a2-6)Gal(b1-4)GlcNAc(b1-3)Gal(b1-4)GlcNAc(b1-3)[Neu5Ac(a2-6)Gal(b1-4)GlcNAc(b1-3)Gal(b1-4)GlcNAc(b1-6)]GalNAc
# Procedure, shortened: as §1
# [31] = target: Neu5Ac(a2-6)Gal(b1-4)GlcNAc(b1-3)Gal(b1-4)GlcNAc(b1-6)[Gal(b1-3)]GalNAc
# Procedure, shortened: as §1
# [32] = target: Neu5Ac(a2-6)Gal(b1-4)GlcNAc(b1-3)Gal(b1-4)[Fuc(a1-3)]GlcNAc(b1-3)Gal(b1-4)[Fuc(a1-3)]GlcNAc
# Procedure, shortened: as §1
# [33] = target: Neu5Ac(a2-6)Gal(b1-4)GlcNAc(b1-3)GalNAc
# Procedure, shortened: as §1
# [34] = target: Neu5Ac(a2-6)Gal(b1-4)GlcNAc(b1-3)[Neu5Ac(a2-6)Gal(b1-4)GlcNAc(b1-6)]GalNAc
# Procedure, shortened: as §1
binder,measurement,setting,value
B1,glycan array binding signal (z-score),Neu5Ac(a2-3)GalNAc,-0.082
same,glycan array binding signal (z-score),[1],-0.559
same,glycan array binding signal (z-score),[2],-0.568
same,glycan array binding signal (z-score),[3],-0.509
same,glycan array binding signal (z-score),[4],2.15
same,glycan array binding signal (z-score),[5],0.341
same,glycan array binding signal (z-score),Neu5Ac(a2-6)Gal,0.205
same,glycan array binding signal (z-score),[6],0.323
same,glycan array binding signal (z-score),Neu5Ac(a2-6)Gal(b1-4)Glc,0.211
same,glycan array binding signal (z-score),[7],-0.75
same,glycan array binding signal (z-score),[8],0.384
same,glycan array binding signal (z-score),[9],0.672
same,glycan array binding signal (z-score),[10],1.03
same,glycan array binding signal (z-score),[11],-0.508
same,glycan array binding signal (z-score),[12],-1.11
same,glycan array binding signal (z-score),[13],2.04
same,glycan array binding signal (z-score),[14],-0.553
same,glycan array binding signal (z-score),[15],-1.07
same,glycan array binding signal (z-score),[16],0.443
same,glycan array binding signal (z-score),[17],-0.215
same,glycan array binding signal (z-score),[18],0.302
same,glycan array binding signal (z-score),[19],-0.552
same,glycan array binding signal (z-score),[20],-1.33
same,glycan array binding signal (z-score),[21],-0.889
same,glycan array binding signal (z-score),[22],0.13
same,glycan array binding signal (z-score),[23],0.307
same,glycan array binding signal (z-score),[24],-1.26
same,glycan array binding signal (z-score),[25],-1.35
same,glycan array binding signal (z-score),[26],1.35
same,glycan array binding signal (z-score),[27],-0.834
same,glycan array binding signal (z-score),[28],1.5
same,glycan array binding signal (z-score),[29],-0.528
same,glycan array binding signal (z-score),[30],0.368
same,glycan array binding signal (z-score),[31],-0.397
same,glycan array binding signal (z-score),[32],-1.06
same,glycan array binding signal (z-score),[33],-0.306
same,glycan array binding signal (z-score),[34],0.992

# 2 entries from above, bar-delimited.
binder | measurement | setting | value
B1 | glycan array binding signal (z-score) | [32] | -1.06
same | glycan array binding signal (z-score) | [33] | -0.306

# From the supplement of paper PMC8728848
